According to article PMC5893553:
No constants are given. Whether binding was seen depends on the method and setting. Binding seen in cells or lysates may run through a third protein. Some results given as binding are weak or reduced against the parent protein; the word gives no strength. Where a sequence is shown, tags or fusion partners need not be part of it.

Sequences of proteins named here, by UniProt entry; tags and fusion partners are left off.
UniProt P51608: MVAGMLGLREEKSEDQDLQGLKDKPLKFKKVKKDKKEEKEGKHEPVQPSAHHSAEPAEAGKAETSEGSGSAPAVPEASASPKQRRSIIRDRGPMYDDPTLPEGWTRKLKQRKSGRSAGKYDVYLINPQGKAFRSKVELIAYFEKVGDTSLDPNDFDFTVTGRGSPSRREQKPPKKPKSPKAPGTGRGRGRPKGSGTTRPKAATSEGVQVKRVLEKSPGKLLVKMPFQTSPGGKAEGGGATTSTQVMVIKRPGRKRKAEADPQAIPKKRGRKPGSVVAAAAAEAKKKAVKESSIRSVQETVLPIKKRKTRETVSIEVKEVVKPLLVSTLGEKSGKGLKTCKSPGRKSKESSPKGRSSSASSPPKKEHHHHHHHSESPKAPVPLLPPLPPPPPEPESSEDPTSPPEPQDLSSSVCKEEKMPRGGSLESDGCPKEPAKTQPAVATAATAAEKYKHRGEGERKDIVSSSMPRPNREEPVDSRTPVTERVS

Biological target: FLAG-tagged human MeCP2 (pFLAG-human MeCP2) (human) (UniProt P51608)
Assay: co-IP; lysate of co-transfected SKN-SH cells (500 μg/500 μL, FLAG buffer) rotated overnight (16 h) at 4 °C with anti-FLAG beads; Western blot for Deaf1

binding: binds
B1: His-tagged human Deaf1 (pcDNA3-His-human Deaf1) (protein, UniProt O75398 1-565)
chain: MEDSDSAAKQLGLAEAAAVAAAAAVAAAAAAAAGGEAEEPVLSRDEDSEEDADSEAERETPRVTAVAVMAAEPGHMDMGAEALPGPDEAAAAAAFAEVTTVTVANVGAAADNVFTTSVANAASISGHVLSGRTALQIGDSLNTEKATLIVVHTDGSIVETTGLKGPAAPLTPGPQSPPTPLAPGQEKGGTKYNWDPSVYDSELPVRCRNISGTLYKNRLGSGGRGRCIKQGENWYSPTEFEAMAGRASSKDWKRSIRYAGRPLQCLIQDGILNPHAASCTCAACCDDMTLSGPVRLFVPYKRRKKENELPTTPVKKDSPKNITLLPATAATTFTVTPSGQITTSGALTFDRASTVEATAVISESPAQGDVFAGATVQEASVQPPCRASHPEPHYPGYQDSCQIAPFPEAALPTSHPKIVLTSLPALAVPPPTPTKAAPPALVNGLELSEPRSWLYLEEMVNSLLNTAQQLKTLFEQAKHASTYREAATNQAKIHADAERKEQSCVNCGREAMSECTGCHKVNYCSTFCQRKDWKDHQHICGQSAAVTVQADEVHVAESVMEKVTV
